Entries after “also recorded” stand apart in the source; their conditions may differ.
System: Sprague-Dawley rats
Test: GC/MS metabolomic profiling of DBS after single VPA dose
Format: in vivo
Conditions: iv 200 mg/kg, male rats

## CCCC(CCC)C(=O)O [VPA, 2-propyl-pentanoic acid]
0.5 h post-VPA treatment
  Change in 2-hydroxybutyric acid level in DBS versus control: significantly increased
2.5 h post-VPA treatment
  Change in pipecolic acid level in DBS versus control: downregulated
5 h post-VPA treatment, 200 mg/kg
  Change in tetratriacontane level in DBS versus control: upregulated; also recorded: increment
5 h to 8 h post-VPA treatment, 200 mg/kg
  Change in stearic acid level in DBS versus control: upregulated; also recorded: increment

Reference: publication PMC9266449, “Dried Blood Spots as Matrix for Evaluation of Valproate Levels and the Immediate and Delayed Metabolomic Changes Induced by Single Valproate Dose Treatment” (International Journal of Molecular Sciences, 2022)
